These are yes or no findings as the source states them, for the method shown. Binding seen in cells or lysates may run through a third protein. These calls come from enrichment with a bait or labelling near it, and not all partners need be listed.
Molecular target: FLAG-PHF3 (PHD-finger protein 3) (human) (UniProt Q92576)
Experiment: affinity purification with mass spectrometry; FLAG-PHF3 expressed in HEK293T; anti-FLAG M2 magnetic beads, lysate with benzonase; empty vector as control; SAINT-MS1

The chains behind the UniProt entries cited, without tags or fusion partners.
UniProt Q92576: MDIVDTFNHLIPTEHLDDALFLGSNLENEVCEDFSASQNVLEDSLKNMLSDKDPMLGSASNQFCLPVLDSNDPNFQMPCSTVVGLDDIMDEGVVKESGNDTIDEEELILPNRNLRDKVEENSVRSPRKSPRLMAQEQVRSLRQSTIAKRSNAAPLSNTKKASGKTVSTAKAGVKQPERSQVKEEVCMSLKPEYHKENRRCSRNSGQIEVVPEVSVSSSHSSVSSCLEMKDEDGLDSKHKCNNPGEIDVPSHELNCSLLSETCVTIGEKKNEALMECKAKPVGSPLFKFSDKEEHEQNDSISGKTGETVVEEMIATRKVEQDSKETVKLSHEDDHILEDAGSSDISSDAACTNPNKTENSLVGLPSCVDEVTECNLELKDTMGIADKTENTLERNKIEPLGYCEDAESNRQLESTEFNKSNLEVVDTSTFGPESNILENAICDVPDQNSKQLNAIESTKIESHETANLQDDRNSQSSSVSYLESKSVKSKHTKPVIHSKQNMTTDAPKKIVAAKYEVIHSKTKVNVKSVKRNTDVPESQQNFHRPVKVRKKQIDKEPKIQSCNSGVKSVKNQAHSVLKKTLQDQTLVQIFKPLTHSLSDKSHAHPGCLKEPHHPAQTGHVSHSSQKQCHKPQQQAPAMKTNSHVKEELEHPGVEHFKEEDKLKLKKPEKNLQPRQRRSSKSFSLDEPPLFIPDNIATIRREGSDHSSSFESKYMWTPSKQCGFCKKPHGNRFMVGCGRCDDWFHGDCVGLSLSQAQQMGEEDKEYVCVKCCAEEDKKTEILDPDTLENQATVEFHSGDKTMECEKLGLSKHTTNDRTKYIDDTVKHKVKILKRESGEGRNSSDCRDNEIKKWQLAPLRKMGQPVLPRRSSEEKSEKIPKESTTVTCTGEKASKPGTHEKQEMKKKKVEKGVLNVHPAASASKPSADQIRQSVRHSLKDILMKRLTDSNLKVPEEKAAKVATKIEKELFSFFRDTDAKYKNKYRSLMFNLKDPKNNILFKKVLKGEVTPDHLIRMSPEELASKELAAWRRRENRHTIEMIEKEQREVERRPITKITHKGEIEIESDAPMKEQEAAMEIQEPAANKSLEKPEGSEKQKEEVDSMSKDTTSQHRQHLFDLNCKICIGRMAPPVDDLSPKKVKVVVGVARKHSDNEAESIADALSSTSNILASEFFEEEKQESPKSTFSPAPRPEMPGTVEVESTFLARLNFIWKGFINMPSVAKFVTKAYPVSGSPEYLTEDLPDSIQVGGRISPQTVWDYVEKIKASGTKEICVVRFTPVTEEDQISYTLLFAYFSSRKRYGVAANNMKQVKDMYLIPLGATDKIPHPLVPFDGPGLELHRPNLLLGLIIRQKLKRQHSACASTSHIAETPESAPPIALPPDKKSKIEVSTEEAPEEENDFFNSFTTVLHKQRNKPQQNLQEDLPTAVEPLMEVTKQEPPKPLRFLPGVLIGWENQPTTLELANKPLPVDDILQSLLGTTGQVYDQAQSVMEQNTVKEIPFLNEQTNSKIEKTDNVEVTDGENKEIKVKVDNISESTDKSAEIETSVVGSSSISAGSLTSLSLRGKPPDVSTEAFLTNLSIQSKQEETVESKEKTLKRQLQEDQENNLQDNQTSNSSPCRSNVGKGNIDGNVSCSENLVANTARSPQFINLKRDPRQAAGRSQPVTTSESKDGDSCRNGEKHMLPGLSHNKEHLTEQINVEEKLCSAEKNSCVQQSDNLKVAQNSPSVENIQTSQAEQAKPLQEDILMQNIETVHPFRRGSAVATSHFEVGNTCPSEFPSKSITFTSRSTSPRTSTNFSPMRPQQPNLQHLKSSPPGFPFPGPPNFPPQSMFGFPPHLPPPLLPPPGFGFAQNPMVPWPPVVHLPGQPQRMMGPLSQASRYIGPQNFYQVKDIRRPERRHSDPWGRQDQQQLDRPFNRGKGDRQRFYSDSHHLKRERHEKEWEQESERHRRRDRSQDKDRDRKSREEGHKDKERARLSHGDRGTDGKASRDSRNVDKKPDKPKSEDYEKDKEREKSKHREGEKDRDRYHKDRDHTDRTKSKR
UniProt P38159: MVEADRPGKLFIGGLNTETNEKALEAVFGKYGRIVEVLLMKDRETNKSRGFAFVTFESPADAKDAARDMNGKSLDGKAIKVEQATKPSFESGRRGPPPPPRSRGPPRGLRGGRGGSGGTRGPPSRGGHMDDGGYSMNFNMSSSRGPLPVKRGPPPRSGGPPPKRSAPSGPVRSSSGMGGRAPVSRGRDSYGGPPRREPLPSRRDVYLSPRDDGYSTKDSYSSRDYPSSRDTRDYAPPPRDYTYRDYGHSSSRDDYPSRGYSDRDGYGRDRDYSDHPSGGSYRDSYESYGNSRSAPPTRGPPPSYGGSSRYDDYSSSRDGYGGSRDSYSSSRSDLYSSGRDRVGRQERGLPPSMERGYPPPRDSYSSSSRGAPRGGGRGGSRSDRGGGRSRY
UniProt P18583: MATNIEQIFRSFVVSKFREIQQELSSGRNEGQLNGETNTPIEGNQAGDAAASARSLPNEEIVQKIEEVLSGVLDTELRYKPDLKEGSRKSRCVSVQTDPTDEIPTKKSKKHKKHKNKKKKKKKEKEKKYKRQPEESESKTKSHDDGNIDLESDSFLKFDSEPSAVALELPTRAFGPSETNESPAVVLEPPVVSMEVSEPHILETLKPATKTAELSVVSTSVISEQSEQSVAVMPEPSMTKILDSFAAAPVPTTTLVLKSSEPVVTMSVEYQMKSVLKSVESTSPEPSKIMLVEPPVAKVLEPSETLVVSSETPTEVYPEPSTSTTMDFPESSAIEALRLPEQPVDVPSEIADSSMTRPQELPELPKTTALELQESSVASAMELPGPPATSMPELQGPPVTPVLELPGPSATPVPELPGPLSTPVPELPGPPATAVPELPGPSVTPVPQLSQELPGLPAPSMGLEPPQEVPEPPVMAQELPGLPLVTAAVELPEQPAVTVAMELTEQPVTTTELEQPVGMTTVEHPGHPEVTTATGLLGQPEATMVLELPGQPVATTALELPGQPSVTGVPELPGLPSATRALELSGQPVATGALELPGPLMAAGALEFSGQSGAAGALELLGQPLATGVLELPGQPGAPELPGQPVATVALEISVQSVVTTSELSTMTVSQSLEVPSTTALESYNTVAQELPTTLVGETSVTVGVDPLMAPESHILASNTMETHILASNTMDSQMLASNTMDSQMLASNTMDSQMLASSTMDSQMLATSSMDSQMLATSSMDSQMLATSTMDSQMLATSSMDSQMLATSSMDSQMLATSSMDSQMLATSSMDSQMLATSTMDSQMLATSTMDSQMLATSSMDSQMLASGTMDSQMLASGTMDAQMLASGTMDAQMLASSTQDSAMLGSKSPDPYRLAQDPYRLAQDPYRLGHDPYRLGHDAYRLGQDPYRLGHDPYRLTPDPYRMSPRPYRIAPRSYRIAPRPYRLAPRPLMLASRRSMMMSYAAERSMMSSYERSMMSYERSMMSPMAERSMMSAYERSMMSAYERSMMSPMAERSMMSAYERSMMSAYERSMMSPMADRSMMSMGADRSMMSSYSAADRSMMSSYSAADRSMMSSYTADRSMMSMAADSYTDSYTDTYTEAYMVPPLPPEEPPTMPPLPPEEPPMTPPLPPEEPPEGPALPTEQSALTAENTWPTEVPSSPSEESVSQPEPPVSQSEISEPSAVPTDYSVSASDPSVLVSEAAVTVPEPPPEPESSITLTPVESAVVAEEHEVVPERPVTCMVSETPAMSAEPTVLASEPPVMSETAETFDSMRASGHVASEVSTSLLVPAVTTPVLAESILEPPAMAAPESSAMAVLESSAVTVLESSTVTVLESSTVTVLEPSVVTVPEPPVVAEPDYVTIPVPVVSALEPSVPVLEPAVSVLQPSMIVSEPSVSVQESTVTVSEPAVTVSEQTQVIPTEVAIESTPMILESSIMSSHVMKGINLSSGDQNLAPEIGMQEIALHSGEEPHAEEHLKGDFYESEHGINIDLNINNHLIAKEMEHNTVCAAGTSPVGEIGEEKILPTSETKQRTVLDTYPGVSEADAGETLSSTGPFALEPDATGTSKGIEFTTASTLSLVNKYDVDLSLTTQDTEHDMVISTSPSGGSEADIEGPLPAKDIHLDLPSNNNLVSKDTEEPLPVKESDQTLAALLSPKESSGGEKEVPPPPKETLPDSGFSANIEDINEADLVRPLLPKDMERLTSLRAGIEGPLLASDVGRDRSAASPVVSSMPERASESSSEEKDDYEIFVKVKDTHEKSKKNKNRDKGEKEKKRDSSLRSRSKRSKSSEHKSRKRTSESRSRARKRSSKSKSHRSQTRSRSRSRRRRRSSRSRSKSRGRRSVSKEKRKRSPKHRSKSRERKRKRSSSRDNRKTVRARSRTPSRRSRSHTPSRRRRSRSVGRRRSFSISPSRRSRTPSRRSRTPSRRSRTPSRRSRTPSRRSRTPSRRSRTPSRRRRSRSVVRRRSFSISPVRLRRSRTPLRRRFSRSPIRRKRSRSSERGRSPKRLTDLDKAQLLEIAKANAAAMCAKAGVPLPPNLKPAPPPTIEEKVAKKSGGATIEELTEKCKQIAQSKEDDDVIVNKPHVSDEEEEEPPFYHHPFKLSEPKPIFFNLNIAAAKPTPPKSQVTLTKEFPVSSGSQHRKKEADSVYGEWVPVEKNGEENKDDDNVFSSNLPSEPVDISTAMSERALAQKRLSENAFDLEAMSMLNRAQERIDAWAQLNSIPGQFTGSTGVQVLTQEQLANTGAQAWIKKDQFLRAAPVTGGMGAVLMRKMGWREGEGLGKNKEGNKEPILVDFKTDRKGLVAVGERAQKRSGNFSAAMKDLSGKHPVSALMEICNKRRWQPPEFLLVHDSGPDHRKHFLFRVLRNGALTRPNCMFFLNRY

Substance	binding
RBMX (from UniProt P38159 1-391)	binds
SON (from UniProt P18583 1-2426)	binds

Source: paper PMC8526623
